Results deposited as PubChem BioAssay AID1224826 (NIAID, 2016)
Purpose: 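Genes that change LPS-induced Tnf promoter activity in mouse macrophages when knocked down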 (primary screen). Cell system: RAW264.7 G9 macrophages from mouse bearing reporters for p65 (GFP) and the Tnf promoter (mCherry). Reagent: siRNA pool against mouse genes, 100 nM. Time to read-out: 16 h of LPS stimulation, after 2 days of siRNA transfection. Challenge: bacterial lipopolysaccharide (Salmonella minnesota R595), 10 ng/ml. Measured: 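Imaged Tnf reporter mCherry in nuclei, minus background, normalised per plate to the median and expressed as robust z-scores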. Reading the numbers: Tnf reporter robust z-score: higher = stronger Tnf promoter reporter signal after LPS; Tnf reporter intensity: higher = stronger Tnf promoter reporter signal. Active means: 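Called active when robust z-score is at most -1.3, matching the median of the Tlr4 knock-down control, or over 3; control wells and wells with under 50 cells never active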. Meaning of the calls: active = Tnf reporter clearly lowered or raised; inactive = no clear change in Tnf reporter.
The whole screen tested about 17,000 reagents; this is an unselected part. About 1,110 of them (6.6%) were called active. 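Active means lowered or raised reporter signal; replicate intensities are raw and not normalised per plate.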 The numbers tell different reagents against one gene apart.

The opening 2 records as a preview:
no.	gene knocked down	reagent no.	Tnf reporter robust z-score	fewer than 50 cells in well	Tnf reporter intensity, replicate 1	Tnf reporter intensity, replicate 2	activity call
1	Pop1	1	2.83	enough cells in well	285	221	inactive
2	Samd9l	1	0.13	enough cells in well	170	159	inactive

Main list, repeating the preview:
no.	gene knocked down	reagent no.	Tnf reporter robust z-score	fewer than 50 cells in well	Tnf reporter intensity, replicate 1	Tnf reporter intensity, replicate 2	activity call
1	Pop1	1	2.83	enough cells in well	285	221	inactive
2	Samd9l	1	0.13	enough cells in well	170	159	inactive
3	Tpgs1	1		fewer than 50 cells per well; well left out of calls	98.2	74.9	inactive
4	BCLP2	1	1.93	enough cells in well	269	274	inactive
5	Ndufs4	1	-0.38	enough cells in well	295	125	inactive
6	Ano1	1	-0.08	enough cells in well	195	133	inactive
7	Ddah1	1	2.33	enough cells in well	378	254	inactive
8	5330416C01Rik	1	-1.47	enough cells in well	101	63.7	active
9	Ntn4	1	1.09	enough cells in well	368	220	inactive
10	Id2	1	-0.81	enough cells in well	176	135	inactive
11	Rab33a	1	-0.21	enough cells in well	305	179	inactive
12	Flnb	1	-0.76	enough cells in well	237	133	inactive
13	Dok7	1	0.63	enough cells in well	134	199	inactive
14	Elp5	1	0.98	enough cells in well	430	260	inactive
15	Tmed10	1	0.51	enough cells in well	181	142	inactive
16	A130014H13Rik	1	-0.19	enough cells in well	149	155	inactive
17	Polq	1	0.23	enough cells in well	141	138	inactive
18	Angpt1	1	1.47	enough cells in well	219	290	inactive
19	Ago4	1	0.01	enough cells in well	171	126	inactive
20	Ppp1r15b	1	0.5	enough cells in well	310	205	inactive
21	Xpa	1	-1.35	enough cells in well	114	139	active
22	Elavl1	1	-1.34	enough cells in well	135	116	active
23	1810009N02Rik	1	-0.69	enough cells in well	161	65.8	inactive
24	Bend7	1	-0.61	enough cells in well	139	97.7	inactive
25	Pign	1	-0.07	enough cells in well	182	93.4	inactive
26	Snrk	1	0.13	enough cells in well	242	132	inactive
27	Gpn2	1	-0.19	enough cells in well	193	175	inactive
28	St8sia1	1	-0.18	enough cells in well	91.8	98.7	inactive
29	St8sia1	2	0.1	enough cells in well	207	173	inactive
30	Mrpl35	1	3.57	enough cells in well	431	272	active
31	Gpr22	1	-0.2	enough cells in well	158	351	inactive
32	Kin	1	-0.58	enough cells in well	203	113	inactive
33	Scaper	1	1.26	enough cells in well	172	183	inactive
34	Defb4	1	0.04	enough cells in well	269	100	inactive
35	Raet1a	1	-1.13	enough cells in well	50.2	74.9	inactive
36	Cxcl9	1	0.41	enough cells in well	221	379	inactive
37	Muc5b	1	0.37	enough cells in well	240	127	inactive
38	Mapre1	1	-0.98	enough cells in well	174	139	inactive
39	Copa	1	-1.2	enough cells in well	102	113	inactive
40	Naa15	1	0.27	enough cells in well	291	221	inactive
41	Ryr2	1	0.06	enough cells in well	299	219	inactive
42	Nxph4	1		fewer than 50 cells per well; well left out of calls	86.1	87.6	inactive
43	Oga	1	0.29	enough cells in well	299	217	inactive
44	Or9i16	1	0.59	enough cells in well	227	137	inactive
45	Dhx33	1	-1.67	enough cells in well	128	33.3	active
46	Egflam	1	0.68	enough cells in well	213	199	inactive
47	C2cd4c	1		fewer than 50 cells per well; well left out of calls	0	92.5	inactive
48	Hpx	1	-1	enough cells in well	182	95.5	inactive
49	Clrn1	1	-0.59	enough cells in well	160	212	inactive
50	Ldlrad3	1	0.69	enough cells in well	185	229	inactive
51	Clic6	1	-0.08	enough cells in well	126	218	inactive
52	Enc1	1	0.25	enough cells in well	262	235	inactive
53	Phxr2	1	-0.37	enough cells in well	97.9	114	inactive
54	Cdca3	1	-0.35	enough cells in well	134	170	inactive
55	Or8g34	1	-0.16	enough cells in well	144	121	inactive
56	Frmpd3	1	0.46	enough cells in well	226	254	inactive
57	Pus3	1	0.3	enough cells in well	226	92.6	inactive
58	Hp1bp3	1	-0.98	enough cells in well	169	107	inactive
